This is an account of results in PMC11628327.

Sequences of proteins named here, by UniProt entry; tags and fusion partners are left off. A change or cut given only in a name is not applied to a line headed by its entry.
UniProt Q9R1E0: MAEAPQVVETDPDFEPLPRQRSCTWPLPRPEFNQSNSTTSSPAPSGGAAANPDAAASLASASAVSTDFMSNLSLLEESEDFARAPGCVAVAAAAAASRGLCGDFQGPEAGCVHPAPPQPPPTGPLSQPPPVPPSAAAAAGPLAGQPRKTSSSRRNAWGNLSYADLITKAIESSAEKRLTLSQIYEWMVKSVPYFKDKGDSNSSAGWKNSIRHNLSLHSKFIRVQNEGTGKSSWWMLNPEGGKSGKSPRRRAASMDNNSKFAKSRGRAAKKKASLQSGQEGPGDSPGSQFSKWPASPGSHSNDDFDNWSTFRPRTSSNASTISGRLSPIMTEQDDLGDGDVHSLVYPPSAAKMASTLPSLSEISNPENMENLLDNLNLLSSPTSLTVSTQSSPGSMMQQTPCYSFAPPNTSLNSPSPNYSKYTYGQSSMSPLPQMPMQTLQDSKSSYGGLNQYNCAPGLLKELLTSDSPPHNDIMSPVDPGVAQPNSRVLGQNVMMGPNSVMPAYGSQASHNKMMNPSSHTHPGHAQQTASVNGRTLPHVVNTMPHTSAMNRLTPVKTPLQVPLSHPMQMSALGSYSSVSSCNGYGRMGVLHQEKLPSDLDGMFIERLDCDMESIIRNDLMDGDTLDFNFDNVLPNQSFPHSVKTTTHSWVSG
UniProt Q19S50: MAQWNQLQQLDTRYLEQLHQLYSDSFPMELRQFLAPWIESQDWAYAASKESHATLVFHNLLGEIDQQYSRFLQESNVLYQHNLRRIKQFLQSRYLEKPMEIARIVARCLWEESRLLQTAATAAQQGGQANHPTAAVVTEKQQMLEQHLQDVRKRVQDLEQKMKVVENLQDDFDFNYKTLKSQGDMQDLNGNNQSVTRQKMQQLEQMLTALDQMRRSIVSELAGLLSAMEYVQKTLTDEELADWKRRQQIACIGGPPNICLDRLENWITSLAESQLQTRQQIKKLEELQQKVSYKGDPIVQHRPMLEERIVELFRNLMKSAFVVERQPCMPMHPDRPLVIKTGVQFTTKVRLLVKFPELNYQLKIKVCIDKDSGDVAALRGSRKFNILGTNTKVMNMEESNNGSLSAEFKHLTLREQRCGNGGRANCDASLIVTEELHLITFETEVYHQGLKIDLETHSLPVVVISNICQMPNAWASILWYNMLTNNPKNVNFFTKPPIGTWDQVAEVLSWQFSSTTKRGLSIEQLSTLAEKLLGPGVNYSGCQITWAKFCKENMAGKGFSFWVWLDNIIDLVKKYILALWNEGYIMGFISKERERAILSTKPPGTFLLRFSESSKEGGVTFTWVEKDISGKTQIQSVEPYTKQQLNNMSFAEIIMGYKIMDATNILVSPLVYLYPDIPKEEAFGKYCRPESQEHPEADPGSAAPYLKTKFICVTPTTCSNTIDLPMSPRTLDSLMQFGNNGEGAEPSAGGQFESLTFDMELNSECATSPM
UniProt P42227: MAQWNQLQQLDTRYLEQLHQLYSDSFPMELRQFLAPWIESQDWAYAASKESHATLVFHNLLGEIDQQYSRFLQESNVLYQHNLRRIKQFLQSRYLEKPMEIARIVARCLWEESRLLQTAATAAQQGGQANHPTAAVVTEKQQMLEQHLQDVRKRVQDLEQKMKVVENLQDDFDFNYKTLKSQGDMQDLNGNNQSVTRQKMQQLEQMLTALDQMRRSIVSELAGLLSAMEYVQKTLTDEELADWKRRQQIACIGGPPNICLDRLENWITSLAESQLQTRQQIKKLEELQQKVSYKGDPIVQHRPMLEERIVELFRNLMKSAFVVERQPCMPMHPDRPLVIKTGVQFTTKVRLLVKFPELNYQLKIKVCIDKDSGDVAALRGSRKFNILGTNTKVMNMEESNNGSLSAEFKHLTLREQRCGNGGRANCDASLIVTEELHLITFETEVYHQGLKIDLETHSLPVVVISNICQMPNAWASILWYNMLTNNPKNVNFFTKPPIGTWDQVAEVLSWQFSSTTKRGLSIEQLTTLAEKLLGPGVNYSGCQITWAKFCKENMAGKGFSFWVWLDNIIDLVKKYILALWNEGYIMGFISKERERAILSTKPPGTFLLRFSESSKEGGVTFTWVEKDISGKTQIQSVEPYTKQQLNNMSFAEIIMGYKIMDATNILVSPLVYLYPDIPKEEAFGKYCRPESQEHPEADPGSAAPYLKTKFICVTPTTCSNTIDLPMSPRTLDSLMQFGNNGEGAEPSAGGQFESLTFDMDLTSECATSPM
UniProt P40763: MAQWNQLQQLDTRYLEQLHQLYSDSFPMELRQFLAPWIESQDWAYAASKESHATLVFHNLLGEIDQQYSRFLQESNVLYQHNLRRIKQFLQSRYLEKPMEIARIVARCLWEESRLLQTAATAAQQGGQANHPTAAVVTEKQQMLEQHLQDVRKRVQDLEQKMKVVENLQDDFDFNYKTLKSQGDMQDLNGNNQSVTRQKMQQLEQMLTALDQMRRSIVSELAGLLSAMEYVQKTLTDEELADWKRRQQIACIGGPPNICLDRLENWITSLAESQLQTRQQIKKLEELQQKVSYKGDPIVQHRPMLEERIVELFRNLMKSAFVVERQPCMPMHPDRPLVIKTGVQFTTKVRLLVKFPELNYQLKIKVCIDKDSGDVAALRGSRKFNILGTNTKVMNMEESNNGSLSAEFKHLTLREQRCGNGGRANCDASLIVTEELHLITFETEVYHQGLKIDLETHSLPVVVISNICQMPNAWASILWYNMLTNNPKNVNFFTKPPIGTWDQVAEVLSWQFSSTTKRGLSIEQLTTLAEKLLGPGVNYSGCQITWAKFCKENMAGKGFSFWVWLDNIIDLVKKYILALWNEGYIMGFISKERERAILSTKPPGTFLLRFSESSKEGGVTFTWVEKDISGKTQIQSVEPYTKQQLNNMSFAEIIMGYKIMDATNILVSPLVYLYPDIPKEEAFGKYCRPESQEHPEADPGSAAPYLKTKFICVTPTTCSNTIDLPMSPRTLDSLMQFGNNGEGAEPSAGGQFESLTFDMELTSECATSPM
UniProt P31749: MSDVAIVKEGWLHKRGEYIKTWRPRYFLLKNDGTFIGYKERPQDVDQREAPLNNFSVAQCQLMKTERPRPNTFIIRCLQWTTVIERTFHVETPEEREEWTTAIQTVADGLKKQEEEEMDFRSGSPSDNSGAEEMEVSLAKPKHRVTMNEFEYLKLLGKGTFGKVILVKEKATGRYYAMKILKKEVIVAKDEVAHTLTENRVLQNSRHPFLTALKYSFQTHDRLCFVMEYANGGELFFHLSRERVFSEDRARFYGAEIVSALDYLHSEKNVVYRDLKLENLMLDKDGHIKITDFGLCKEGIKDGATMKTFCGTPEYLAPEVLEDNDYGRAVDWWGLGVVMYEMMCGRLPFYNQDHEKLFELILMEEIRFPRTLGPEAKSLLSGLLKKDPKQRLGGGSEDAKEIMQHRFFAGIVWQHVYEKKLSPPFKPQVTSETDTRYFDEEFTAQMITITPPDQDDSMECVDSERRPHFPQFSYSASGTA

These are yes or no findings as the source states them, for the method shown. In cells and extracts the contact can be indirect. Binding can be weak; no strength is given.

Assay [1] has as its target FLAG-tagged FOXO1 mutant lacking the nuclear localization signal (FOXO1-△NLS) (UniProt Q9R1E0). The experiment in a line: co-IP; porcine GCs, FOXO1-siRNA 12 h, then FLAG-tagged FOXO1 vectors, hypoxia (1% O2) 12 h; cytoplasmic and nuclear fractions; IP with anti-FLAG-tag, immunoblot. (In general: In western blotting, separated proteins are transferred to a membrane and probed.)

For assay [2] the target is unchanged. In words: co-IP; NIH/3T3 cells, endogenous FOXO1 silenced, FLAG-tagged FOXO1 vectors, hypoxia; cytoplasmic and nuclear fractions; IP, immunoblot.
The target is the same in assay [3]. In words: co-IP; 293T cells, endogenous FOXO1 silenced, FLAG-tagged FOXO1 vectors, hypoxia; cytoplasmic and nuclear fractions; IP, immunoblot.

In the case of “STAT3 (endogenous, porcine granulosa cells) (from UniProt Q19S50 1-770)”, in assay [1], the binding entry is “binds”.

Take “STAT3 (endogenous, NIH/3T3 cells) (from UniProt P42227 1-770)”: in assay [2], the binding result is listed as “binds”.

On to “STAT3 (endogenous, 293T cells) (from UniProt P40763 1-770)”, for which the binding result in assay [3] is reported as “binds”.

For “AKT1 (endogenous, 293T cells) (from UniProt P31749 1-480)”, the binding entry in assay [3] was “binds”.
